Where “and” joins values, the source holds several entries; their conditions need not be identical. Equal entries are not always repeated. The list shows a part of the results. The main result of the screen is listed elsewhere. These columns were measured beside it and carry no call. Compounds called inactive in the main read-out are mostly missing here. Words in brackets tell the shape of the fitted curve; partial curves, single points and poor fits give uncertain potencies.

The nature of this test: qHTS Assay for Modulators of Lamin A Splicing. Conditions: HeLa LMNA splicing GFP/RFP minigene ratio, 48 h. An outline of the steps:
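S3 HeLa stable clones carrying a lamin A-EGFP splicing minigene plus DsRed2 were seeded at 600 cells/well in Opti-MEM with 2% FBS, pin-dosed and incubated 48 h at 37°C. Acumen cytometry (488 nm) gave the GFP/RFP total-intensity ratio.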
Background: In qHTS, concentration-response curves come from the screen itself.

Setting [1] is: measured here: GFP splicing reporter channel.
[2] abbreviates: measured here: RFP viability control channel.

Consider `O=C(c1ccc(Cl)c(S(=O)(=O)N2CCCCCC2)c1)N1CCOCC1`, for which, under setting [1], the AC50 (as a rule, the concentration at which the activity in the assay is half-maximal) is 3.55 µM [rising, single point]. Consider `CCOc1ccc(-c2csc(NC(=O)c3ccc(S(=O)(=O)N4CCc5ccccc5C4)cc3)n2)cc1`, for which the AC50 under setting [2] was 28.2 µM [rising, single point]. `COc1ccccc1Cn1c(CNS(=O)(=O)c2c(C)cc(C)cc2C)nc2cccnc21`: the AC50 under setting [2] is 0.708 µM [rising, full curve, poor fit]. Same read-out and setting: next, `Cc1ccc(C2=NN(Cc3nnc(-c4ccccc4)o3)C(=O)SC2)cc1`: 31.6 µM [rising, single point].

Turning to `O=C(Nc1cccc(Cl)c1)Nc1ccccc1NS(=O)(=O)c1cccs1`, the AC50 runs as follows: under setting [1], 11.2 µM [rising, partial curve, poor fit]; under setting [2], 22.4 µM [rising, single point]. As to `CN(C(=O)CSc1nc2ccc(NC(=O)c3ccc(F)cc3)cc2s1)c1ccccc1`, the AC50 under setting [1] is 25.1 µM [falling, single point].

`O=C(CCCN1C(=O)/C(=C/c2ccccc2)SC1=S)Nc1ccc(O)cc1`: the AC50 under setting [2] is 3.98 µM [rising, full curve, poor fit]. Take `CCC(=O)Nc1ccccc1Sc1ncnc2scc(-c3ccccc3)c12`: the AC50 was 0.112 µM [falling, full curve, poor fit] under setting [1] and 12.6 µM [falling, partial curve] under setting [2].

Take `On1nnc2c3ccccc3c3ccccc3c21`: the AC50 was 6.31 µM [falling, full curve, poor fit] under setting [1] and 2.82 µM [falling, full curve, poor fit] under setting [2]. For the compound `COc1ccc(C(=O)Nc2cccnc2)cc1OC`, the AC50 is, setting by setting: under setting [1], 10 µM [rising, partial curve, poor fit]; under setting [2], 11.2 µM [rising, partial curve, poor fit]. With `CN(C)C(=S)c1ccc2ccccc2n1`, under setting [2], the AC50 was 15.8 µM [falling, partial curve]. Turning to `O=c1c(-c2ccc(O)cc2)coc2cc(O)cc(O)c12`, the AC50 runs as follows: under setting [1], 35.5 µM [falling, single point] and 15.8 µM [falling, partial curve]; under setting [2], 15.8 µM [rising, partial curve] and 15.8 µM [rising, single point]. `CCCCC(=O)NC(c1ccc([N+](=O)[O-])cc1)c1c(O)ccc2ccccc12` (stereo unspecified): under setting [2], the AC50 is 12.6 µM [rising, partial curve, poor fit].

Consider `COc1cc(NC(=O)c2ccc(C)cc2)c(OC)cc1NC(=O)CN1CCCCC1`, for which the AC50 under setting [2] was 11.2 µM [rising, partial curve]. Regarding `CCOC(=O)Nc1ccc2c(c1)N(C(=O)CCN1CCOCC1)c1ccccc1S2`, the AC50 under setting [1] is 0.282 µM [falling, full curve] and the AC50 under setting [2] is 10 µM [rising, single point].
